This experiment is described as follows: qHTS Assay to Find Inhibitors of Chronic Active B-Cell Receptor Signaling. The conditions noted are these: ABC-DLBCL IkBa-CBG/CBR reporter, luminescence ratio (green luciferase fused to IkBa over red control in TMD8 lymphoma cells), 4 h. A digest of the protocol:
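Doxycycline induced both beetle luciferases in TMD8 lymphoma cells; IKK-driven degradation limits the IkappaBalpha-fused green signal, while red luminescence normalises for cell number and nonspecific effects. Compounds tested up to 46 uM, 4 hrs.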
For orientation: In qHTS, concentration-response curves come from the screen itself.

Setting [1] is: measured here: CBR red luminescence, cell number.

Usually AC50 stands for the midpoint of the concentration-response curve, whichever way the signal moves.

The structures appear in SMILES notation. The list shows a part of the results. Shown are side measurements of this screen, not its main read-out; they come without a call. Most of these compounds were active or inconclusive in the main read-out, so they are no random draw. Words in brackets tell the shape of the fitted curve; partial curves, single points and poor fits give uncertain potencies.

As for `COCCCNC(=O)CCn1nc(-c2ccc(Cl)cc2)ccc1=O`, under setting [1], the AC50 is 5.62 µM [rising, single point]. Regarding `CN(c1ccccc1)S(=O)(=O)c1ccc(C(=O)NCC2CCCO2)cc1` (stereo unspecified), the half-maximal activity concentration (AC50) under setting [1] was 0.116 µM [rising, full curve, poor fit].

`NS(=O)(=O)c1ccc(NC(=S)NC2CCCC2)cc1`: the AC50 under setting [1] is 16.4 µM [falling, single point]. For `c1ccc(-c2nnc(-c3ccncc3)o2)cc1`, under setting [1], the AC50 was 23.1 µM [falling, partial curve].

On to `CCOc1cc(C2C(C#N)=C(N)OC(C)=C2C(C)=O)cc(Br)c1O` (stereo unspecified), for which, under setting [1], the AC50 was 3.66 µM [falling, partial curve, poor fit]. `CC1CCc2nc(NC(=O)Cc3cccs3)sc2C1` (stereo unspecified): under setting [1], the AC50 was 29.1 µM [falling, single point].

As for `COCCN1Cc2cccc(C(=O)Nc3ccc(-c4nc5ccccc5[nH]4)cc3)c2C1=O`, the AC50 under setting [1] is 0.206 µM [falling, full curve]. With `N#Cc1c(-c2ccc(F)cc2)nc2n(c1=O)CCS2`, the AC50 under setting [1] is 0.731 µM [falling, full curve, poor fit].

For the molecule `O=C(O)c1ccc(-n2cccc2)cc1O`, the AC50 under setting [1] is 6.51 µM [falling, single point]. Same read-out and setting: to `COC(=O)C1CCN(C(=O)CN2C(=O)NC3(CCC(C)CC3)C2=O)CC1` (stereo unspecified) belongs 4.61 µM [rising, full curve, poor fit]; to `COc1cccc(N2CC(C(=O)Nc3ccc(C(=O)OC(C)C)cc3)CC2=O)c1` (stereo unspecified), 5.62 µM [rising, single point]; to `CC1=CC2=C(OC1N(C)C)c1cccc3cccc(c13)C2=O` (stereo unspecified), 16.4 µM [falling, partial curve, poor fit]. In the case of `O=C(N/N=C1\C(=O)c2cccc3cccc1c23)c1ccc(O)cc1`, the AC50 under setting [1] was 5.62 µM [falling, partial curve, poor fit]. Turning to `CCOc1ccc(-n2c(N)c(C(=O)NCC3CCCO3)sc2=S)cc1` (stereo unspecified), the AC50 under setting [1] is 5.62 µM [rising, partial curve, poor fit].

For `O=C(Nc1ccccc1C(=O)O)c1cccc(N2C(=O)c3ccccc3C2=O)c1`, the AC50 under setting [1] was 3.16 µM [falling, partial curve]. Regarding `CCOC(=O)c1c(NC(=O)CSc2nnc(CNc3ccc(F)cc3)o2)sc(C(C)=O)c1C`, the half-maximal activity concentration (AC50) under setting [1] was 18.4 µM [falling, partial curve, poor fit]. As to `Clc1ccc(Nc2c3c(nc4ncnn24)CCC3)cc1`, under setting [1], the AC50 was 3.55 µM [rising, partial curve].

As for `CCOC(=O)c1c(O)cc(OC)cc1CCc1ccccc1`, the AC50 under setting [1] was 29.1 µM [rising, single point]. `CCC(=O)Nc1ccc2c(c1)nc(CCN1CCN(c3ccccc3)CC1)n2C`: the AC50 under setting [1] is 0.1 µM [falling, full curve, poor fit]. On the same count and under the same terms, to `Cn1c(C(=O)NCC2CCCO2)cc2c(=O)[nH]c3ccccc3c21` (stereo unspecified) belongs 23.1 µM [rising, single point]. On to `Cc1cc(-c2ccccc2)nnc1NCCN1CCOCC1`, for which, under setting [1], the half-maximal activity concentration (AC50) was 1.46 µM [rising, full curve, poor fit]. On the same count and under the same terms, with `C=CCC[C@@H](Cc1ccc(F)cc1)C(=O)OC[C@@H](Cc1ccccc1)NC(=O)[C@H](CC=C)CC(=O)NCCO` the figure was 25.9 µM [falling, single point]; with `CCn1c(Cc2ccccc2)nnc1SCC(=O)c1c(N)n(C2CC2)c(=O)[nH]c1=O`, 23.1 µM [rising, single point]; with `O=C(CC12CC3CC(CC(C3)C1)C2)Nc1nncs1`, 17.8 µM [falling, partial curve, poor fit]. In the case of `CCOC(=O)C1=CN(Cc2ccco2)S(=O)(=O)N(CC)C1c1ccccc1` (stereo unspecified), under setting [1], the half-maximal activity concentration (AC50) is 29.1 µM [falling, single point].

`Cc1cc(C(=O)COC(=O)c2ccc(Br)o2)c(C)n1C`: under setting [1], the AC50 is 3.98 µM [rising, single point]. For the molecule `C=C(C)COc1ccc(-c2[nH]ncc2Oc2ccccc2OCC)c(O)c1`, the AC50 under setting [1] was 35.5 µM [falling, single point]. As to `O=C(Nc1cccc(Cl)c1)Nc1cccc(Cl)c1`, under setting [1], the AC50 is 0.326 µM [rising, full curve, poor fit]. Consider `Cc1cc(C)cc(NC(=O)c2ccc3nc[nH]c3c2)c1`, for which, under setting [1], the AC50 was 0.291 µM [falling, partial curve, poor fit]. Regarding `C/C(=N\N=C1\NC(=O)C(CC(=O)Nc2ccc(C)c(Cl)c2)S1)C(C)(C)C` (stereo unspecified), the AC50 under setting [1] was 7.94 µM [falling, partial curve, poor fit]. Turning to `COC(=O)C(Cc1ccc(O)cc1)NC(=O)c1ccccc1` (stereo unspecified), the AC50 under setting [1] is 0.231 µM [rising, full curve, poor fit]. As to `OCCN(Cc1nc(-c2ccc3c(c2)OCO3)no1)Cc1cccs1`, the AC50 under setting [1] was 11.2 µM [rising, partial curve, poor fit]. Take `Cc1ccc(N2CC(O)Cn3c2nc2c3c(=O)n(C)c(=O)n2C)cc1` (stereo unspecified): the AC50 under setting [1] was 15.8 µM [rising, partial curve, poor fit]. As to `COc1ccc(C(=O)CSc2cc(C)nc3nc(C)nn23)cc1OC`, the concentration at half-maximal activity (AC50) under setting [1] is 5.17 µM [rising, single point]. Take `CCOc1ccc2[nH]c(=O)c(CN(CCO)C(=O)CC)cc2c1`: under setting [1], the half-maximal activity concentration (AC50) was 6.51 µM [falling, single point]. For `COc1ccccc1Cn1c(=O)[nH]c2cccnc21`, the AC50 under setting [1] is 6.51 µM [rising, full curve, poor fit]. As for `CN(NC(=O)c1ccccc1F)c1nc(C(F)(F)F)nc2ccccc12`, the AC50 reads like this: under setting [1], 20 µM [rising, single point]; (measured here: IkBa-CBG green luminescence) 12.6 µM [falling, single point].

For the molecule `O=c1c(-c2ccccc2Cl)c[nH]n1-c1ccccc1`, the half-maximal activity concentration (AC50) under setting [1] is 14.1 µM [falling, single point].

For `CCCN(CCC)C(=O)COc1cc(=O)n(CC)c2ccccc12`, the AC50 under setting [1] is 29.1 µM [rising, single point]. For the molecule `Cc1cccn2cc(CSc3ccccc3N)nc12`, the AC50 under setting [1] was 4.61 µM [falling, partial curve, poor fit]. Turning to `Cc1ccc2[nH]c(=O)c(CN(Cc3ccccc3)C(=S)NCCCN(C)C)cc2c1`, under setting [1], the AC50 is 0.501 µM [falling, full curve].

`Cc1cccc(C)c1OCCCCn1cnc2ccccc2c1=O`: under setting [1], the AC50 was 8.91 µM [falling, single point]. Turning to `O=C(NCCCN1CCOCC1)c1sc2ccccc2c1Cl`, under setting [1], the AC50 was 8.91 µM [rising, partial curve, poor fit]. Take `N#C/C(=C/c1ccc2c(c1)OCO2)C(=O)Nc1ccc(O)cc1`: the AC50 under setting [1] is 15.8 µM [falling, partial curve, poor fit]. Regarding `COc1ccccc1OCCC(=O)OCC(=O)Nc1ccc(S(=O)(=O)N2CCOCC2)cc1`, the concentration at half-maximal activity (AC50) under setting [1] is 20 µM [falling, single point]. Take `CNc1nc(Cl)c(SC)c(N2CCOCC2)n1`: the AC50 under setting [1] was 12.6 µM [falling, single point].

Regarding `CC(=O)c1cccc(NC(=O)CN2CCN(Cc3ccccc3)CC2)c1`, under setting [1], the AC50 was 12.6 µM [rising, partial curve, poor fit].

As for `O=C(Nc1nc2c(s1)CN(Cc1ccccc1)CC2)C1CCCC1`, under setting [1], the AC50 is 3.55 µM [rising, partial curve, poor fit]. Regarding `Cc1ccc(S(=O)(=O)NNC(=O)c2snnc2C)cc1`, under setting [1], the AC50 was 1.3 µM [falling, full curve, poor fit]. Turning to `O=C(Nc1ccc(F)cc1F)N1CCN(c2ncccn2)CC1`, the AC50 under setting [1] is 7.31 µM [falling, partial curve]. On to `CN(C)C(=O)CCc1nc(-c2ccc(C(C)(C)C)cc2)no1`, for which, under setting [1], the AC50 was 25.1 µM [falling, single point]. Regarding `COc1ccc(Cl)cc1NC(=O)C/C(C)=N/NC(=O)c1ccccc1Cl`, the AC50 under setting [1] was 12.6 µM [falling, partial curve]. Regarding `C=CCN(c1ccccc1)S(=O)(=O)c1cc(C(=O)NC2=NCCS2)ccc1Cl`, the AC50 under setting [1] is 14.1 µM [falling, single point]. Consider `CC(=O)Nc1cccc(C(=O)OC(C(=O)c2ccc(C)cc2)c2ccccc2)c1` (stereo unspecified), for which the concentration at half-maximal activity (AC50) under setting [1] was 31.6 µM [rising, single point]. As to `O=C(CNC(=O)c1ccco1)N/N=C/c1ccc(O)c([N+](=O)[O-])c1`, the concentration at half-maximal activity (AC50) under setting [1] was 5.17 µM [falling, partial curve, poor fit]. For the molecule `CN(C)CCCN(C(=O)c1ccc2c(c1)OCCO2)c1nc2cc3c(cc2s1)OCO3`, the AC50 under setting [1] was 22.4 µM [falling, single point]. Regarding `O=C(c1ccc2[nH]c(=O)c(=O)[nH]c2c1)N1CCc2ccccc21`, the AC50 under setting [1] was 3.55 µM [rising, single point].

Regarding `COC(=O)c1ccccc1NC(=O)NCCc1ccccc1OC`, the AC50 under setting [1] was 10 µM [falling, partial curve]. Take `O=C(CCN1C(=O)c2ccccc2C1=O)NC(=S)Nc1cccc(Cl)c1`: the AC50 under setting [1] was 35.5 µM [falling, single point].

`S=C(NCCc1ccccc1)NCc1cccs1`: under setting [1], the AC50 is 29.1 µM [falling, single point]. The same measure, in the same setting: to `CN1CCN(c2ccc(NC(=O)c3ccc(-c4ccc(Br)cc4)o3)cc2)CC1` belongs 22.4 µM [falling, single point]; to `COC(=O)N1C(=O)[C@](c2ccccc2)(C(C)C)N1C(=O)OC`, 12.6 µM [falling, partial curve, poor fit]. With `O=C(COC(=O)/C=C/c1ccc(F)cc1)Nc1cc(C(F)(F)F)ccc1N1CCOCC1`, under setting [1], the AC50 is 3.26 µM [rising, full curve, poor fit]. In the case of `CC(=O)Nc1ccc(/C=C/c2ccc3cccc([N+](=O)[O-])c3n2)cc1`, the AC50 under setting [1] was 5.01 µM [rising, full curve, poor fit]. Regarding `CCC(=O)NC(c1ccc(C)cc1)c1ccc2cccnc2c1O` (stereo unspecified), the concentration at half-maximal activity (AC50) under setting [1] is 7.08 µM [falling, partial curve].

The values are drawn from PubChem BioAssay AID493014 (National Center for Advancing Translational Sciences (NCATS), 2011).
